# Results published in paper PMC6925144, “A prospective compound screening contest identified broader inhibitors for Sirtuin 1” (Scientific Reports, 2019).
# Sequences of proteins named here, by UniProt entry; tags and fusion partners are left off. Residues count along the entry.
# UniProt Q96EB6, 2-747 limits assumed: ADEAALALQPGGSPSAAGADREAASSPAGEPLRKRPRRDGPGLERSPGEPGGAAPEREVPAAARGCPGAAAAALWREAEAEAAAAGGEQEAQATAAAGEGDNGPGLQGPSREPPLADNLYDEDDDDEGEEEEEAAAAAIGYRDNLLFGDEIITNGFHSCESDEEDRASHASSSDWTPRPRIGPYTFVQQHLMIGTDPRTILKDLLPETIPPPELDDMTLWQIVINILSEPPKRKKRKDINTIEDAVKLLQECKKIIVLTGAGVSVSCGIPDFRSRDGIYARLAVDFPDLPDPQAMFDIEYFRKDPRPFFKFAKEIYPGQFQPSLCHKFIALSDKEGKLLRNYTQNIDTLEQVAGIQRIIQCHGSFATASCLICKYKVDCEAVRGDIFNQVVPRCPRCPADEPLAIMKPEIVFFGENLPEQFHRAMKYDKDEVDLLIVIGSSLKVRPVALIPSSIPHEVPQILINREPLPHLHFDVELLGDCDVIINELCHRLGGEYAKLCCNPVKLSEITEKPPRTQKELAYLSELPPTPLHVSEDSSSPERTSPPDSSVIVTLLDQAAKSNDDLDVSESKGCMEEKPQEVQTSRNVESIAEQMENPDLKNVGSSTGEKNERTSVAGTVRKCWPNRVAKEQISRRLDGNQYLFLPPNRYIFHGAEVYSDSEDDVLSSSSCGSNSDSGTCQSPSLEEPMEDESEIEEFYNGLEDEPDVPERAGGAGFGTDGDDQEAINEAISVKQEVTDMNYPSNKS
# Whole data set: some 3,200 compounds, median “TSA(with NAD+) / Primary screening (TSA) / delta Tm (K)” near -0.04, cut for the highest 2% near 0.37. Some of the results follow.
# Biological target: NAD-dependent deacetylase Sirtuin 1 (human, UniProt Q96EB6)
# Assay: primary screen, delta tm
# Set-up: single well (n = 1, as 'the same TSA')
# Details: 10 µM
row,Structure (SMILES),TSA(with NAD+) / Primary screening (TSA) / delta Tm (K)
1,CC(Nc1ccnc(CC#N)c1)C(=O)N1CCCCC1C (stereo not shown),-0.15
2,COc1ccc(NC(=O)C2=COCCO2)cc1Cc1ccccc1,-0.01
3,CCOCc1cn(CC(=O)c2ccc(CC)cc2)c(C)nc1=N,-0.03
4,CC(N)CCCO (stereo not shown),-0.06
5,O=C(NCC1CC2c3ccccc3C1c1ccccc12)Nc1cccnn1 (stereo not shown),-0.26
6,COC(=O)c1ccc2[nH]c(CNC(=O)CSC)nc2c1,-0.18
7,CCN(CC)S(=O)(=O)c1cccc(C(=O)N[C@H](C(=O)NCC23CC4CC(CC(C4)C2)C3)C(C)C)c1,-0.09
8,CN(Cc1cnccn1)C(=O)Nc1ccc2c(c1)CCCN2C,-0.13
9,Cn1c(-c2ccccc2)c(CO)c2ccccc21,-0.02
10,CC(N)CCCN (stereo not shown),-0.08
11,C[C@H](NC(N)=O)C(=O)OCC(=O)Nc1ccc(C(N)=O)cc1,-0.11
12,NC(=O)COC(=O)C1CC(=O)N(c2ccc3c(c2)OCCO3)C1 (stereo not shown),-0.18
13,CC(CC(O)c1ccccc1)NC(=O)c1cccc(S(=O)(=O)NCC2CCCO2)c1 (stereo not shown),-0.08
14,CNC(=O)C1CNc2ccccc2O1 (stereo not shown),-0.18
15,COc1ccc2cc(C3(C)NC(=O)N(CC(=O)NCC45CC6CC(CC(C6)C4)C5)C3=O)ccc2c1 (stereo not shown),-0.06
16,CCc1nn2c(=O)cc(CNc3cc(Cl)ccc3F)nc2s1,0.09
17,CCCn1ccnc1S(=O)(=O)CC(=O)Nc1ccc(C(N)=O)cc1,0.02
18,NCCCCN,-0.32
19,Nc1ncnc2c1cnn2-c1ccccc1,0.26
20,Oc1ccc(Cl)cc1/C=N/c1ccccc1,-0.05
21,COc1ccc(N(C)S(=O)(=O)c2cccc(C(=O)NCCCOc3cccc(C)c3)c2)cc1,-0.09
22,CCc1cc2c(N3CCCC3)nc(C)nc2s1,-0.72
23,CCOC(=O)c1c(C)[nH]c(C)c1C(=O)COC(=O)c1cccc(S(=O)(=O)N2CC3(C)CC2CC(C)(C)C3)c1 (stereo not shown),0.12

# Retrieved by structure from the entries so far:
row,Structure (SMILES),TSA(with NAD+) / Primary screening (TSA) / delta Tm (K)
19,Nc1ncnc2c1cnn2-c1ccccc1,0.26
4,CC(N)CCCO (stereo not shown),-0.06

# Continued.

row,Structure (SMILES),TSA(with NAD+) / Primary screening (TSA) / delta Tm (K)
1,O=C(Nc1cccc2ccccc12)N1CCC(c2ccc(O)cc2)CC1,-0.11
2,COC(C)[C@H](C)N (stereo partly shown),-0.09
3,CCC(CC)N(c1ccc(C)c(C)c1)S(=O)(=O)c1cccc(C(N)=O)c1,-0.01
4,O=C(c1cnc(-c2ccccc2)nc1)c1cc(Br)ccc1O,0.09
5,O=C(O)Cn1nc(-c2ccccc2)ccc1=O,0.05
6,N#Cc1ccc(S(=O)(=O)N2CCN(c3ncnc4cc(Cl)ccc34)CC2)cc1,0.05
7,COC(=O)c1c(C)[nH]c(C(=O)C(C)OC(=O)c2ccc(C(N)=O)cc2)c1C (stereo not shown),0.08
8,O=C(NC1CCS(=O)(=O)c2ccccc21)C1=Cc2ccccc2OC1 (stereo not shown),-0.05
9,O=c1[nH]c(CN2CCN(c3ncnc4sc5c(c34)CCCCC5)CC2)nc2sc3c(c12)CCCC3,-0.02
10,Cc1ccc2[nH]c(SCc3cc(=O)oc4ccc5ccccc5c34)nc2c1,0.02
11,CC(O)c1nc2ccccc2n1Cc1cnn(C)c1C(F)(F)F (stereo not shown),-0.11
12,CC(NCC1(N(C)C)CCOCC1)c1ccc(S(C)(=O)=O)cc1 (stereo not shown),-0.01
13,CCN(CC)C(=O)Nc1ccc(C(C)NC(=O)c2cc3c(F)cccc3[nH]2)cc1 (stereo not shown),0.15
14,CCCNc1nnc(S)s1,-0.33
15,CCc1cc2c(N3CCN(CCCc4nc(-c5cccs5)no4)CC3)ncnc2s1,0.05
16,O=C(CC12CC3CC(CC(O)(C3)C1)C2)NCc1cc(-c2ccccc2)on1,-0.01
17,Cc1cc(C(=O)CN2CCCC2c2cccn2C)c(C)n1-c1ccc(S(N)(=O)=O)cc1 (stereo not shown),-0.01
18,O=C(CC12CC3CC(CC(C3)C1)C2)NN/C=C1/C(=O)N(Cc2ccccc2)C(=O)c2ccccc21,0.19
19,Cc1nc(C)c(CNC(=O)N2CC(C)c3ccccc32)s1 (stereo not shown),-0.11
20,COc1ccccc1-c1noc(C(C)NC(=O)C(C)NC(C)=O)n1 (stereo not shown),-0.01
21,CN(C(=O)Cc1ccc(NC(=O)NCc2ccc(-n3cncn3)nc2)cc1)c1ccccc1,-0.06
22,Cc1nc(-c2ccsc2)sc1C(=O)NCc1ccc(N2CCOCC2)c(F)c1,0.06
23,COc1ccc2c(C=C3C(=O)NC(=O)NC3=O)cccc2c1,-0.22
